Measured values as given in patent US4379165A, “Anti-convulsant” (priority 1981, dated 1983).

Tests used:
[1] = test system: ability to maintain balance on a rotating rod; test: Rotorod Toxicity Test, rats; type: in vivo; settings: rats (Table 7; title of Table 5 prints Mice); oral
[2] = test system: subcutaneous picrotoxin seizure threshold; settings: mice; intraperitoneal
[3] = test system: ability to maintain balance on a rotating rod; settings: mice
righting reflex = test: hypnosis (loss of righting reflex), HD50; settings: mice; intraperitoneal
[4] = test system: maximal electroshock seizures; test: maximal electroshock seizure (MES) pattern test, mice
[5] = test system: maximal electroshock seizures; test: maximal electroshock seizure (MES) pattern test, rats; settings: rats (Table 7; title of Table 5 prints Mice); oral
[6] = test system: subcutaneous bicuculline seizure threshold; test: subcutaneous Bicuculline Seizure Threshold Test (sc Bic); settings: mice; intraperitoneal
[7] = test system: subcutaneous metrazol seizure threshold; test: subcutaneous Metrazol Seizure Threshold Test (sc Met), mice
[8] = test system: subcutaneous strychnine seizure pattern; settings: mice; intraperitoneal

| SMILES | Slope, regression line, Rotorod [1] | Slope, regression line, Picrotoxin [2] | Slope, regression line, Rotorod ([3]; intraperitoneal) | Slope, regression line, Rotorod ([3]; oral) | Slope, regression line, HD50 (righting reflex) (righting reflex) | Slope, regression line, MES ([4]; intraperitoneal) | Slope, regression line, MES ([4]; oral) | Slope, regression line, MES [5] | Slope, regression line, Bicuculline [6] | Slope, regression line, sc Met ([7]; intraperitoneal) | Slope, regression line, Strychnine [8] | Slope, regression line, sc Met ([7]; oral) |
| --- | --- | --- | --- | --- | --- | --- | --- | --- | --- | --- | --- | --- |
| CC(NC(=O)c1ccc(N)cc1)c1ccccc1 (stereo not drawn) [4-amino-N-(alpha-methylbenzyl)-benzamide] | 5.66 | 1.73 | 15.32 | 9.09 | 20.85 | 6.02 | 24.79 | 19.24 | 2.38 | 13.67 |  |  |
| NC(=O)N1c2ccccc2C=Cc2ccccc21 [Carbamazepine] | 6.06 | 3.86 | 4.77 | 3.47 | 5.92 | 3.62 | 9.07 | 4.50 |  |  | 2.85 | 5.50 |
| O=C1NC(=O)C(c2ccccc2)(c2ccccc2)N1 [Phenytoin] |  |  | 15.23 | 13.01 | 14.03 | 13.66 and 13.67 | 6.28 | 2.82 |  |  |  |  |
| CCC1(c2ccccc2)NC(=O)N(C)C1=O (stereo not shown) [Mephenytoin] | 13.47 | 7.43 | 9.22 | 6.58 | 17.00 | 8.01 | 28.81 | 3.60 | 1.99 | 4.76 |  | 3.60 |
| CCC1(c2ccccc2)C(=O)NC(=O)NC1=O [Phenobarbital] | 3.00 | 4.79 | 24.67 | 8.51 | 8.41 |  |  | 4.12 | 4.07 | 5.93 | 18.51 |  |

Values joined by “and” are separate entries in the source; they are usually repeats but may differ in a detail not shown here. Equal values may be shown once. Read-outs that look alike come from different tables or passages of the source.
